# Data published in article PMC7819943, “Rice protein-binding microarrays: a tool to detect cis-acting elements near promoter regions in rice”.
# Amino acid sequences for entries named in this document (tags omitted).
# UniProt Q0JBA9, entry or part of it: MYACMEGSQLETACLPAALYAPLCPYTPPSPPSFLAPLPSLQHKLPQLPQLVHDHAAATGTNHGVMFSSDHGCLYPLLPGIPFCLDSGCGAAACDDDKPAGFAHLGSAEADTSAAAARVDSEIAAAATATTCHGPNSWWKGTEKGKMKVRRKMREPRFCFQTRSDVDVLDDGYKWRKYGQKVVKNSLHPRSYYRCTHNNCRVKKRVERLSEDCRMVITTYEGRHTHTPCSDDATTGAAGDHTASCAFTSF
# This is one part of the list.
# Biological target: OsWRKY34 (Oryza sativa, UniProt Q0JBA9 1-250)
# Test: protein-binding microarray (RPBM); PBS, 2% BSA, 51.3 ng/ul salmon testes DNA, 50 uM zinc acetate, 200 nM TF, 25 C, 1 h; high values mean tight binding
# Details: protein: recombinant; tags: N-terminal polyhistidine and DsRed monomer fusion (pET32a); label: CyDye5-dUTP incorporated in the synthesized complementary strand; 3' TTTTT single-stranded linker to array surface; dsDNA, one strand shown
# Procedure, shortened: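 A custom Agilent array was converted to double-stranded form by primer extension with Cy5-dUTP and blocked with 2% BSA. Protein at 200 nM in PBS with 2% BSA, salmon testes DNA and 50 µM zinc acetate was applied for 1 h at 25 °C, followed by washing. The proteins were polyhistidine–DsRed N-terminal fusions of transcription factors, expressed in E. coli BL21-CodonPlus and Ni–NTA-purified. The binding signal is per-feature fluorescence intensity (arbitrary units) from an Axon 4000B scanner.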
row,Sequence,binding signal
1,CCTCGCCTACTTGGGTTCCGTTCTACCACCATCTTTTAGGCGGAGTCACCTAGTGCAG,10800 fluorescence intensity (a.u.)
2,AGTGTGGCGAGTAGTAGTGGTATTCCCCTCTTGGTCTTGGCGGAGTCACCTAGTGCAG,8190 fluorescence intensity (a.u.)
3,GCTTTTCTTTGTCCATCCATCTATCTTTTTCTCCATCTTTCGGAGTCACCTAGTGCAG,8440 fluorescence intensity (a.u.)
4,GCCGCCAGATCCAGCAGGGGCGGGAGGGGAGGCGTGTCCGCGGAGTCACCTAGTGCAG,13100 fluorescence intensity (a.u.)
5,CCTGAGTTTTTGAAAATTAAGGGTTGGGTCTTCTTTGAACCGGAGTCACCTAGTGCAG,14400 fluorescence intensity (a.u.)
6,TCTGCATGGTATGTATAGGCATTTTCTTGAGACATTTTAACGGAGTCACCTAGTGCAG,8380 fluorescence intensity (a.u.)
7,CAGCAGCAGCAGTAATTCCTCCGCTTCTTCTTCCTTGCTGCGGAGTCACCTAGTGCAG,8440 fluorescence intensity (a.u.)
8,GTTTTGTACTCTTTCGTAACAGCCCTCAATGTCTTGGTATCGGAGTCACCTAGTGCAG,11600 fluorescence intensity (a.u.)
9,CGTTGACCCCGCCACCCGCCGTGCACCACCCGCCGCCCACCGGAGTCACCTAGTGCAG,8410 fluorescence intensity (a.u.)
10,TTAATGTTCATTATGGTGTTTCTTAATTGCTTTTTGCTTTCGGAGTCACCTAGTGCAG,10500 fluorescence intensity (a.u.)
11,ATTAATTGGTCCACGCCTTTTCACGTGCCTCTTGCCGCACCGGAGTCACCTAGTGCAG,8040 fluorescence intensity (a.u.)
12,TATAATTTTGTGCTAATATGCATTTTCCTTGTTTTGTTTACGGAGTCACCTAGTGCAG,11300 fluorescence intensity (a.u.)
13,TTTTCGCATGTTTCTTTTCTTTTTTTTTCTTTTCTTTTCCCGGAGTCACCTAGTGCAG,16600 fluorescence intensity (a.u.)
14,ATCGTAATGGATCTCCAATTCGGGGAGGAGGGAGGAATAACGGAGTCACCTAGTGCAG,9420 fluorescence intensity (a.u.)
15,AAACAAATGGTCAAACGTCGTTTAAAAGTCAACGGCGTCACGGAGTCACCTAGTGCAG,11000 fluorescence intensity (a.u.)
16,TTTGTGAGAGAGACTAAAATATATTCCTACCATCTCAAACCGGAGTCACCTAGTGCAG,8260 fluorescence intensity (a.u.)
17,ATAGATGACGCCGTTAACTTTTTCTCACATGTTTAACCATCGGAGTCACCTAGTGCAG,10200 fluorescence intensity (a.u.)
18,TACATTCTTTATGTTTTGCTCCCATATTGCTGATTTCACTCGGAGTCACCTAGTGCAG,8600 fluorescence intensity (a.u.)
19,GCCACGCGCACACACGCCCTGATCGCGCTCCCGGCATCTACGGAGTCACCTAGTGCAG,8260 fluorescence intensity (a.u.)
20,CGACCACCACCGCTGCCGACCCATGTCGCCGTTCGCGGCCCGGAGTCACCTAGTGCAG,8700 fluorescence intensity (a.u.)
21,CACCCACGAGACCACCACGTGCTTGACCACATGGGCCCACCGGAGTCACCTAGTGCAG,8370 fluorescence intensity (a.u.)
22,AAAAAGTCAACGGTGTCAAATATTTTGAAACGGAGGAAGTCGGAGTCACCTAGTGCAG,8560 fluorescence intensity (a.u.)
23,TGCAACGAACCTGCACTGCATTGTCCCTTTCATCATCACGCGGAGTCACCTAGTGCAG,8370 fluorescence intensity (a.u.)

# In a second layout: results already given
row	Sequence	binding signal
7	CAGCAGCAGCAGTAATTCCTCCGCTTCTTCTTCCTTGCTGCGGAGTCACCTAGTGCAG	8440 fluorescence intensity (a.u.)
8	GTTTTGTACTCTTTCGTAACAGCCCTCAATGTCTTGGTATCGGAGTCACCTAGTGCAG	11600 fluorescence intensity (a.u.)
